Assay results taken from patent publication US20230022157A1 (Achillion Pharmaceuticals, Inc., priority 2018, published 2023).

The chains behind the UniProt entries cited, without tags or fusion partners. Residues count along the entry.
UniProt P00746, 26-253 limits assumed: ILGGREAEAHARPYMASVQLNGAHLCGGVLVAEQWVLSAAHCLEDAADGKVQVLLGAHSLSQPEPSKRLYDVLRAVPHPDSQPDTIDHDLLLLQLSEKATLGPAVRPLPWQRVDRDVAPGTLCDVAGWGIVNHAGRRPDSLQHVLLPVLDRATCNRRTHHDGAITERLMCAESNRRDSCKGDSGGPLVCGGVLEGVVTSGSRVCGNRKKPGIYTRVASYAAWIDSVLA

Target: Human Factor D (Homo sapiens, UniProt P00746)
Experiment: Human Factor D Assay
Conditions: read-out: IC50 (Stars); Human Factor D 80 nM, substrate Z-L-Lys-SBzl; Table 2

## CC(=O)c1cn(CC(=O)N2[C@H]3CC[C@H](C3)[C@H]2C(=O)Nc2nc(C(F)(F)F)ccc2C)c2c(C)cc(-c3cnc4cc(C)nn4c3)cc12
  IC50: < 1000 nM

The structures given here were assigned with low confidence; some may be wrong.
